The record followed here is patent US20080242557A1, “System For Detecting Molecular Interactions” (CGK CO., LTD., priority 2004, published 2008).

Sequences of proteins named here, by UniProt entry; tags and fusion partners are left off. A change or cut given only in a name is not applied to a line headed by its entry.
UniProt P25963: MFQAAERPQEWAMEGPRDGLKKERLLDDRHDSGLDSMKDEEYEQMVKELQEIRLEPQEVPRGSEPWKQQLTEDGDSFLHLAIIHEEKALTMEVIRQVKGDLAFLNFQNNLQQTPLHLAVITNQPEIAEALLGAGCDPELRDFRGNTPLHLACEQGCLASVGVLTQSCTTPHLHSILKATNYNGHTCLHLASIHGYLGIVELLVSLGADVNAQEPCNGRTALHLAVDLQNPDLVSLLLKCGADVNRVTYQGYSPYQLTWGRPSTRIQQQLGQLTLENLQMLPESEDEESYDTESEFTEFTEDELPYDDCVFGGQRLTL
UniProt Q04206: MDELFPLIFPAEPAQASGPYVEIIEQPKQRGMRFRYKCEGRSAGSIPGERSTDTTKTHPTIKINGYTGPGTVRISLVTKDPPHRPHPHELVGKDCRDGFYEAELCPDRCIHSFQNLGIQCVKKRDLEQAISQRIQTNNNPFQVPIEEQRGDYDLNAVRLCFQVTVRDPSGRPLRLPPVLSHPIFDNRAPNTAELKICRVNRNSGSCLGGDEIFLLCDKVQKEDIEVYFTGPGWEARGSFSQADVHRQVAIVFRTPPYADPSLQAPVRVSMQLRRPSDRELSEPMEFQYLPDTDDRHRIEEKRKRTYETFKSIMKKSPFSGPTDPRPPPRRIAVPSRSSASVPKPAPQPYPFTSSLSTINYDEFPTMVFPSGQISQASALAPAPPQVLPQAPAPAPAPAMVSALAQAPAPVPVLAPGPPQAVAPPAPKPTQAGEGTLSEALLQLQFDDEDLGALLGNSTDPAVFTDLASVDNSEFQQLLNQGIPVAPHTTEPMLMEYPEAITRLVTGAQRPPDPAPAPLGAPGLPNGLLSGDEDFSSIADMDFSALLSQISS

In assay [1] the target is IκBα-ECFP-FKBP 12 fusion protein (without TNF-α treatment or with IKK inhibitor SC-514; not phosphorylated) (UniProt P25963). Nature of the assay: co-translocation with FK506-coated magnetic nanoparticles in live HeLa cells, confocal microscopy.
The target is the same in assay [2]. Nature of the assay: co-translocation with FK506-coated magnetic nanoparticles in live HeLa cells, confocal microscopy; without TNF-α / with SC-514.

These are yes or no findings as the source states them, for the method shown. Some binding calls cover weakened binding; strength is not graded here.

Turning to “EYFP-ReIA fusion protein (from UniProt Q04206 1-551)”, the binding entry in assay [1] and in assay [2] was “binds” in each case.
